PMC7819943, “Rice protein-binding microarrays: a tool to detect cis-acting elements near promoter regions in rice”
Some of the results follow.

Protein sequences, listed by entry. Tags and fused reporters are not part of them.
UniProt Q0JBA9, entry or part of it: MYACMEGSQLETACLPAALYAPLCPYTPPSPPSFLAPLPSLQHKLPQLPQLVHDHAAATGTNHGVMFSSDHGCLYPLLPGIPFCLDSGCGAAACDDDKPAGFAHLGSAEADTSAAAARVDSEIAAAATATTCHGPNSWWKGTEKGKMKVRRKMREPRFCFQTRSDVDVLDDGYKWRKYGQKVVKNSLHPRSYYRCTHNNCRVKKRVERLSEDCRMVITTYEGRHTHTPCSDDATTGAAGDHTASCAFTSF

target: OsWRKY34 (Oryza sativa, UniProt Q0JBA9 1-250); assay: protein-binding microarray (RPBM); PBS, 2% BSA, 51.3 ng/ul salmon testes DNA, 50 uM zinc acetate, 200 nM TF, 25 C, 1 h; high values mean tight binding; conditions: protein: recombinant; tags: N-terminal polyhistidine and DsRed monomer fusion (pET32a); label: CyDye5-dUTP incorporated in the synthesized complementary strand; 3' TTTTT single-stranded linker to array surface; dsDNA, one strand shown
Outline: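 In PBS with 2% BSA, salmon testes DNA and 50 µM zinc acetate, 200 nM protein was incubated on a custom Agilent array at 25 °C for 1 h and then washed off. The array had been made double-stranded by primer extension with Cy5-dUTP and blocked with 2% BSA. The proteins were transcription factors fused N-terminally to polyhistidine and DsRed, expressed in E. coli BL21-CodonPlus and purified on Ni–NTA. The binding signal is per-feature fluorescence intensity (arbitrary units) from an Axon 4000B scanner.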

Sequence | binding signal
TGATCAGCTCGCCACGTCACCGTCACCGCCTCGCCTCGCTCGGAGTCACCTAGTGCAG | 13600 fluorescence intensity (a.u.)
CTGTAGCTAGCTTTTCCAGGACAGCTTCATGCCTCTTCAACGGAGTCACCTAGTGCAG | 8930 fluorescence intensity (a.u.)
TTCATTCTCGAGTCTCGTCATTGTATTGAAAGTATTCACACGGAGTCACCTAGTGCAG | 8560 fluorescence intensity (a.u.)
GATTCTTCTAGTGTACCTTACTATGTTACCACAATAGTATCGGAGTCACCTAGTGCAG | 8630 fluorescence intensity (a.u.)
ACTCCATCGTTTCAAATTATAAGTCGATTTAACCATTTTCCGGAGTCACCTAGTGCAG | 9310 fluorescence intensity (a.u.)
GAGCTTCCAGATCCCGCCGGCGACCATGATCATCTTCACCCGGAGTCACCTAGTGCAG | 8850 fluorescence intensity (a.u.)
CTTCCGGTGTTGGGCATTGATCGGTGGGTGGGTTGAGGATCGGAGTCACCTAGTGCAG | 15900 fluorescence intensity (a.u.)
CCACAACTCTCAAATTTCTATCCTTTTCTTCTTCTTCCATCGGAGTCACCTAGTGCAG | 9810 fluorescence intensity (a.u.)
AACTTTTTCATCACATCAAAGCTTTCCTATACATACAAACCGGAGTCACCTAGTGCAG | 8480 fluorescence intensity (a.u.)
CCCATTTATAGAGCATCCTAGCTACCCTTTTTCCCTGATACGGAGTCACCTAGTGCAG | 9400 fluorescence intensity (a.u.)
GTTCTTGGATGGTCGTTGTTGGTTTCGGTTGGTGTCGATGCGGAGTCACCTAGTGCAG | 9680 fluorescence intensity (a.u.)
GCTTGTTTTTCCTTTTCTTTAAGCATCATTGACGTGATTACGGAGTCACCTAGTGCAG | 13000 fluorescence intensity (a.u.)
GCGTTCCACCGCCGCTGTCTCGCTCTCTCTCCGCCGCCACCGGAGTCACCTAGTGCAG | 16300 fluorescence intensity (a.u.)
AAGTAGATATTGGAGTATTTTTCTTGTATTTTTGCTCACTCGGAGTCACCTAGTGCAG | 8750 fluorescence intensity (a.u.)
TGTCCTGTCGCCTTCGATTTCTCAAGTTGACCAAGCCGCTCGGAGTCACCTAGTGCAG | 13600 fluorescence intensity (a.u.)
ACATACTATACACATTTTGGCTGTATATATCCACACCTGACGGAGTCACCTAGTGCAG | 9520 fluorescence intensity (a.u.)
TCCTTTGGCAGATGTGTTTTACTTTTTTTTTTCTACTTGTCGGAGTCACCTAGTGCAG | 8910 fluorescence intensity (a.u.)
ATGTTTCAATCCCGCGTGAGCCTTTGTGCATACAGTATTTCGGAGTCACCTAGTGCAG | 11800 fluorescence intensity (a.u.)
ATCTTAACCCTTCATTCATTTTCCAATCCCGCCCCTCATTCGGAGTCACCTAGTGCAG | 9670 fluorescence intensity (a.u.)
AAGTACATCTTTTTCGTCTTCTCCACTCCATCTCCATGACCGGAGTCACCTAGTGCAG | 8380 fluorescence intensity (a.u.)
CACTCTTTATTTTATTATGACTTGATTCGTCATCAAATGTCGGAGTCACCTAGTGCAG | 8680 fluorescence intensity (a.u.)

Sequence | binding signal
GCTTTGCTTGTGGTTGTGGTTGTGAACTTGTGATGATGAACGGAGTCACCTAGTGCAG | 9420 fluorescence intensity (a.u.)
AGGTCACACAACATCGCGGCAATTTTCTATTTACGCCCCTCGGAGTCACCTAGTGCAG | 9060 fluorescence intensity (a.u.)
TTGTTTTCGTACTAGCCTGCACAAACCTCTTTTTAAGTTACGGAGTCACCTAGTGCAG | 8610 fluorescence intensity (a.u.)
CTGCATCTGCTGCTGCTGCTGCCACTGCCACTCTTGTCCACGGAGTCACCTAGTGCAG | 8320 fluorescence intensity (a.u.)
CTCTGATGTCCTATGCATGTTCCAGTTTATTCAGGGCTTGCGGAGTCACCTAGTGCAG | 8920 fluorescence intensity (a.u.)
CGCCATGCATTTCATCCATTCTTTTCCGCCACAAAAATGCCGGAGTCACCTAGTGCAG | 8780 fluorescence intensity (a.u.)
CCACCAACTAGCTCTCTCTCTCTCTCTCTCTCTCGCGCCGCGGAGTCACCTAGTGCAG | 8070 fluorescence intensity (a.u.)
TTTGACACCGTTGACTTTTTAGTACGTATTTGATCATTCGCGGAGTCACCTAGTGCAG | 33800 fluorescence intensity (a.u.)
GTGTTTTGTTCTGGTCACAAGTTAGTCATGCCAAACTTTCCGGAGTCACCTAGTGCAG | 8940 fluorescence intensity (a.u.)
ATGTCCTTTTCGCCGGCCCATTTCAGCTGCTCTCACTCTCCGGAGTCACCTAGTGCAG | 12100 fluorescence intensity (a.u.)
GGAAGTGAGTTATACTATTATCCTGCTCTACTATGAAAACCGGAGTCACCTAGTGCAG | 8600 fluorescence intensity (a.u.)
CCCTATTAATGCAACAGCTTCCTGTTTCAGTCTGTACTCTCGGAGTCACCTAGTGCAG | 8130 fluorescence intensity (a.u.)
CACATGTCATCACCTCTTTTGTTCATAGCTACAGTCCATGCGGAGTCACCTAGTGCAG | 11400 fluorescence intensity (a.u.)
CAGTAACAATCACTCATTCTCAGTATCTGCTACTCCTCTACGGAGTCACCTAGTGCAG | 8710 fluorescence intensity (a.u.)
CCCAAAACTTGCATCACACTCACTAAGTTAGATTGTTCCTCGGAGTCACCTAGTGCAG | 8210 fluorescence intensity (a.u.)
ATCTCGACCAAACCGCACATACATCTCGTCCCTGCTGGGGCGGAGTCACCTAGTGCAG | 10400 fluorescence intensity (a.u.)
TTGTAGAATTCATCCTTTGTCAATGTTATGGAATGGATTACGGAGTCACCTAGTGCAG | 8500 fluorescence intensity (a.u.)
ACTTTGTAGCCCAATAACCACTATTTGATTCAACAGGTTTCGGAGTCACCTAGTGCAG | 9900 fluorescence intensity (a.u.)
CTGTACTCTGCATGCTTTGGTTTGCTAATATTTAGCCAAACGGAGTCACCTAGTGCAG | 8880 fluorescence intensity (a.u.)
TCCACTGCCTAGACACGCCACGACTTGGACCATCAGCTAGCGGAGTCACCTAGTGCAG | 10800 fluorescence intensity (a.u.)
CAGGGGCTCCAATACTGACGCGTCGCCGGCGTACGTCCTCCGGAGTCACCTAGTGCAG | 9640 fluorescence intensity (a.u.)

Two entries from above, tab-delimited.
Sequence	binding signal
CCCAAAACTTGCATCACACTCACTAAGTTAGATTGTTCCTCGGAGTCACCTAGTGCAG	8210 fluorescence intensity (a.u.)
ATCTCGACCAAACCGCACATACATCTCGTCCCTGCTGGGGCGGAGTCACCTAGTGCAG	10400 fluorescence intensity (a.u.)
